Holding throughout (assay type): cell-based
Test [1] has as its system K562 cells. In words: CCK-8 cell viability assay, K562 cells. Conditions: Homo sapiens, CCK-8, 48 h. The procedure: (§1) Human CML cell line K562 cells and human umbilical vein endothelial cells (HUVECs) were purchased from ATCC (Manassas, USA). Drug resistant K562 (K562R) cells were provided by the Chinese Academy of Medical Science Hematology Institute. The cells were cultured in RPMI-1640 medium containing 10% fetal bovine serum (FBS) in cell culture flasks under a humidified 5% CO2 and 95% air atmosphere at 37 °C. Bone marrow (BM) cells from mice or patients were cultured in DMEM/F12 medium supplemented with 20% FBS.
(§2) Cell viability was examined using the cell counting kit-8 (CCK-8) assay (YEASEN China). In brief, cells (1 × 10^4 cells/well) in confluent 96-well cell culture plates were treated with different concentrations of coumarin derivative (1, 5, 10, 25, 50, 100, 200, and 400 μg/mL) for 48 h. Then 10 μL CCK-8 reagents were added into every well for 2 h of incubation. Optical density (OD) was detected using the microplate reader (BioTek, Germany). The values were then fit into a non-linear regression curve and the IC50 was calculated using GraphPad Prism.

For test [2], the system named is K562R cells. In words: CCK-8 cell viability assay, drug resistant K562 cells. As to conditions: Homo sapiens, K-562R; CCK-8, 48 h. The method, then:
as §1, §2

The subject of test [3] is HUVECs. The test can be described thus: CCK-8 cell viability assay (cytotoxicity), HUVECs. As to conditions: Homo sapiens, HUVEC; CCK-8, 48 h. The procedure:
as §1, §2
For orientation: Formazan colour is commonly taken as a measure of viable cells.

The test system of test [4] is CD34+ hematopoietic stem and progenitor cells (HSPCs). In words: CCK-8 cell viability assay (cytotoxicity), HSPCs. As to conditions: Homo sapiens; CCK-8, 48 h.
Text: Human CD34^+ HSCPs were obtained from the specimens of consenting healthy donors or CML patients at Xijing Hospital, and purified using Human Whole Blood CD34 Positive Selection Kit II (StemCell Technologies, China). Briefly, the human bone marrow was homogenized, and the top layering with Ficoll-Paque (GE Healthcare, USA) interphase containing immune cells and CD34^+ HSPCs was collected and washed with PBS, then CD34^+ HSPCs were purified according to the protocol of EasySep human CD34 positive selection kit (StemCell Technologies, China). CD34^+ cells were cultured in StemSpan-ACF medium II supplemented with 50 ng/mL human stem cell factor, 10 ng/mL thrombopoietin, 20 ng/mL FMS-related tyrosine kinase 3 ligand, 20 ng/mL interleukin-6 and 1% penicillin-streptomycin solution.
as §2

Molecules are shown by their SMILES. In brackets after ≈: the same amount, converted by molar mass.

For orientation: IC50 means the point on the concentration scale where inhibition reaches its midpoint. Low readings indicate higher potency, high ones lower potency.

With `Cc1ccc(NC(=O)c2ccc(CN3CCN(C)CC3)cc2)cc1Nc1nccc(-c2cccnc2)n1` [Imatinib, imatinib, reference compound], the IC50 in test [1] is 0.15 µg/mL (≈ 0.304 µM); in test [2], 4.86 µg/mL (≈ 9.85 µM); in test [3], 12.4 µg/mL (≈ 25.1 µM); in test [4] it was 11.3 µg/mL (≈ 23 µM).

The record behind these values is publication PMC10201669, “A novel coumarin derivative DBH2 inhibits proliferation and induces apoptosis of chronic myeloid leukemia cells” (Genes & Diseases, 2022).
